# Measurements: publication PMC8036949, “Investigation of the Interaction of Human Origin Recognition Complex Subunit 1 with G-Quadruplex DNAs of Human c-myc Promoter and Telomere Regions”
# Target: T1, hORC1(413-511) (Homo sapiens) (UniProt Q13415)
# T1 sequence (looked up): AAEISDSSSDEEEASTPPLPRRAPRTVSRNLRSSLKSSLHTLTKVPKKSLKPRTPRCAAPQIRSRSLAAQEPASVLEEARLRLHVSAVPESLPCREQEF
# Assay: fluorescence anisotropy
# Settings: 100 mM LiCl instead of KCl; FA: 20 mM HEPES-KOH pH 7.7, 100 mM KCl (or LiCl), 1 mM EDTA, 1 mM DTT, 25 C, 2 uM DNA, 1:1 fit; recombinant protein; residues 413-511; label: 5'-FAM; single-stranded DNA
sequence,measurement,value
TTGGGTTAGGGTTAGGGTTAGGGA [teloDNA in LiCl (no G4)],Kd,1540 nM

# The exact form of at least one protein or probe is not confirmed. Tags and fusion partners may be left off the protein sequences shown.
